In one assay the target is EGFP-PSMC5 (UniProt P62195). Description: pull-down; GFP-Trap beads with 2 mg lysate of 8305C cells transfected with EGFP constructs, SUMO-lysis buffer with N-ethylmaleimide (non-denaturing), 4 °C overnight, western blot; asynchronous, DT/R-0 h and DT/R-6 h cells. (In general: In western blotting, separated proteins are transferred to a membrane and probed.)
Another assay deals with FLAG-PSMC5 (UniProt P62195). The assay is described as follows: co-IP; anti-FLAG (M2) pull down from lysates of cells transfected with FLAG-hPIAS2b or FLAG-PSMC5, protein G-Sepharose, western blot.
For assay [1], the target named is PIAS2 beta isoform (PIAS2b), endogenous (human (endogenous in 8305C)) (UniProt O75928). Description: co-IP; endogenous proteins in 8305C extracts synchronized at mitosis (DT/R-6 h; for TUBB3 also DT/R-0 h), antibody overnight, protein G-Sepharose, 5 washes with HNTG buffer, western blot.
Assay [2] concerns the target FLAG-hPIAS2b (human) (UniProt O75928). The assay is described as follows: co-IP; anti-FLAG (M2) pull down from lysates of cells transfected with FLAG-hPIAS2b or FLAG-PSMC5, protein G-Sepharose, western blot.
In assay [3] the target is PIAS2 beta isoform (PIAS2b), endogenous (human (endogenous in 8305C)) (UniProt O75928). The assay is described as follows: co-IP; endogenous proteins in extracts of asynchronous or DT/R-0 h 8305C cells, western blot.
The target in assay [4] is FLAG-hPIAS2b (human) (UniProt O75928). Description: co-IP; transfected exogenous human PIAS2b in DT/R-6 h synchronized mitotic 8305C, western blot; tag and antibody not told in the legend.

Amino acid sequences for entries named in this document (tags omitted). A change or cut given only in a name is not applied to a line headed by its entry.
UniProt P62195: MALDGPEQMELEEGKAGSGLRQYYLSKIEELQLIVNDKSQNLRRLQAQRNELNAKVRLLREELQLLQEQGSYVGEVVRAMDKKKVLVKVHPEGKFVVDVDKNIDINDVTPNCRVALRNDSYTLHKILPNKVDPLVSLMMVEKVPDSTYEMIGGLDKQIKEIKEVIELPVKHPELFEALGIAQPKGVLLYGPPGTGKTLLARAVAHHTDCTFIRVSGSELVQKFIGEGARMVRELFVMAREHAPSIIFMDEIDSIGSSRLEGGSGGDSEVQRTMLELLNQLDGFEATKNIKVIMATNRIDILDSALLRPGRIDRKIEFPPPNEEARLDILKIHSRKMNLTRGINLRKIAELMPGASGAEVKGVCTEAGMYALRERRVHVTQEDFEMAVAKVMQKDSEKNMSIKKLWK
UniProt O75928: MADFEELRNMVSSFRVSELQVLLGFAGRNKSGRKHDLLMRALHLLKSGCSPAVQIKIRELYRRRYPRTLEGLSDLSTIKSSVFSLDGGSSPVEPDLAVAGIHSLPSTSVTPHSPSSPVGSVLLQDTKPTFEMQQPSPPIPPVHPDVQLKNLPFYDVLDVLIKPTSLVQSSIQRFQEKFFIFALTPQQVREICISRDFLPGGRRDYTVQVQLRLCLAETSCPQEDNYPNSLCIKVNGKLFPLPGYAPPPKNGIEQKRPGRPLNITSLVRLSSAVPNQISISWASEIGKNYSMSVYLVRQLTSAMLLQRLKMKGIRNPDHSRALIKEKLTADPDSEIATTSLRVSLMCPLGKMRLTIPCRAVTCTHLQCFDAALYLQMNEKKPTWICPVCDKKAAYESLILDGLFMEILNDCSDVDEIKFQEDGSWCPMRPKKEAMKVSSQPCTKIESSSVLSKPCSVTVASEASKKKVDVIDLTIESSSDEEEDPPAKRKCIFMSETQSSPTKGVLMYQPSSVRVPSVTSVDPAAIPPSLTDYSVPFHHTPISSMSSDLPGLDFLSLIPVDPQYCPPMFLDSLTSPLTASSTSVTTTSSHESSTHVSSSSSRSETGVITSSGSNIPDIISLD
UniProt Q13509: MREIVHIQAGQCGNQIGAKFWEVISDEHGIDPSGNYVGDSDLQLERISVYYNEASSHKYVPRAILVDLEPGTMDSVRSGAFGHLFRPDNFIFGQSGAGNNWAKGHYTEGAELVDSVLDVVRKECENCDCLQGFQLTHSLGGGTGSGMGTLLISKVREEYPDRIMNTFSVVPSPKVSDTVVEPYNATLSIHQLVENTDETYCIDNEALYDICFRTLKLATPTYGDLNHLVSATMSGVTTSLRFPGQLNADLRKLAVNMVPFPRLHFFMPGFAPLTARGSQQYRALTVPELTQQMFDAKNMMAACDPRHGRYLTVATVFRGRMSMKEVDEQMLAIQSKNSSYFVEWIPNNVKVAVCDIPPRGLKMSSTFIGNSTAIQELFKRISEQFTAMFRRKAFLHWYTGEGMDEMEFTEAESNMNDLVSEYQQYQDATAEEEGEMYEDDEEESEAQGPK
UniProt P67775: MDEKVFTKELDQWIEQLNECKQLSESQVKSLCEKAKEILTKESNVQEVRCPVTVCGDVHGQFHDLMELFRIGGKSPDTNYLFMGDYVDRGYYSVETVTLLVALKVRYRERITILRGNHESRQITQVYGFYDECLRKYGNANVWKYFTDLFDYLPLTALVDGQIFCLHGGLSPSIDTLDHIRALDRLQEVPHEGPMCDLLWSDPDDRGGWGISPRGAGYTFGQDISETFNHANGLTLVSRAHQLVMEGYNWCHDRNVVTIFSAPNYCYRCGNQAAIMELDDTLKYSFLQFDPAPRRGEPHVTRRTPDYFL

The record followed here is paper PMC11094195.

These are yes or no findings as the source states them, for the method shown. Binding seen in cells or lysates may run through a third protein. Some results given as binding are weak or reduced against the parent protein; the word gives no strength.

Take “PIAS2 beta isoform (PIAS2b), endogenous (from UniProt O75928-1 1-621)”: the binding entry with EGFP-PSMC5 and in the assay with FLAG-PSMC5 was “binds” each time.

With “TUBB3, endogenous (from UniProt Q13509 1-450)”, the binding result (in assay [1]; with FLAG-hPIAS2b (human) [2]) was “binds” throughout.

For the molecule “PSMC5, endogenous (from UniProt P62195 1-406)”, the binding entry in assay [1] is on record as “binds”; with EGFP-PSMC5, “binds”; in assay [3], “no binding (condition: asynchronous or DT/R-0 h cells)”; with FLAG-hPIAS2b (human) [2] it was “binds”.

With “catalytic subunit of the serine/threonine-protein phosphatase 2A alpha isoform (PPP2CA), endogenous (from UniProt P67775 1-309)”, the binding result in assay [1] is recorded as “binds”.

B1: aurora kinase A (AURKA), endogenous (protein, UniProt O14965 1-403)
chain: MDRSKENCISGPVKATAPVGGPKRVLVTQQFPCQNPLPVNSGQAQRVLCPSNSSQRIPLQAQKLVSSHKPVQNQKQKQLQATSVPHPVSRPLNNTQKSKQPLPSAPENNPEEELASKQKNEESKKRQWALEDFEIGRPLGKGKFGNVYLAREKQSKFILALKVLFKAQLEKAGVEHQLRREVEIQSHLRHPNILRLYGYFHDATRVYLILEYAPLGTVYRELQKLSKFDEQRTATYITELANALSYCHSKRVIHRDIKPENLLLGSAGELKIADFGWSVHAPSSRRTTLCGTLDYLPPEMIEGRMHDEKVDLWSLGVLCYEFLVGKPPFEANTYQETYKRISRVEFTFPDFVTEGARDLISRLLKHNPSQRPMLREVLEHPWITANSSKPSNCQNKESASKQS
Turning to B1, the binding result (with FLAG-hPIAS2b (human) [4]; in assay [1]) was “binds” throughout.
